# The full ranking holds about 33,000 sequences; the median of “E-score (-0.5 to 0.5)” is about -0.0059, and the highest 2% start at about 0.26. This is one part of the list.
# Molecular target: T1, Cin5 (UniProt P40917)
# T1 sequence: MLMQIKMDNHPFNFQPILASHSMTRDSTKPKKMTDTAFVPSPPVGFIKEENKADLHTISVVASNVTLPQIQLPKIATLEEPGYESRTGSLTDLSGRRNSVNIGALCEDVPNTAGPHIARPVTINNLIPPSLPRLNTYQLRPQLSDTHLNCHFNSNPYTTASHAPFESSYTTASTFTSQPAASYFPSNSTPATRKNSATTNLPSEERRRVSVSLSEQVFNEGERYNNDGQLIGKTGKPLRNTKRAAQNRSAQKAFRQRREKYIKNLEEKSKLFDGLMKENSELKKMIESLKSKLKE
# Assay: PBM E-score (8-mer binding enrichment) (E-score (-0.5 to 0.5)); higher = stronger / more preferred TF binding
# Conditions: protein concentration: 100 nM; construct: GST-full length
# Outline: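 For each ungapped eight-base word taken together with its reverse complement, the Universal PBM Analysis Suite assigned an E-score. Binding data came from GST-tagged yeast transcription factors, applied at about 100-200 nM, on universal all-10-mer Agilent arrays made double-stranded by primer extension. Fluorescent anti-GST marked bound protein, and scans were normalised with masliner.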
row,Sequence,PBM E-score
1,CATATTTA,0.157
2,GCCCTAGC,-0.121
3,CGTGACTA,-0.018
4,AATACCGA,-0.106
5,ACTCTGAA,0.0787
6,CTAATCGA,0.202
7,AGATAAGA,0.215
8,CTTACAGA,-0.0723
9,AGCGCAGC,-0.149
10,CAATGCAG,-0.056
11,ATAGAGAA,0.096
12,CCCGATGA,0.169
13,TATGGCGA,-0.093
14,CAGTCAAA,-0.111
15,ACAGGCAC,-0.167
16,CGCATAGA,0.177
17,TCTTAACA,0.0509
18,AAACGCTT,0.0152
19,CACTTGAA,0.125
20,AGGAGCAT,-0.108
21,AGTTAACC,0.0936
22,AATACATT,0.151
23,CGAGACGC,0.0025

row,Sequence,PBM E-score
1,ATCCGCCG,0.105
2,AGTTGTTA,0.122
3,AAGCGTGT,-0.101
4,AGCCAGTG,-0.171
5,TCGGGTCA,0.102
6,CGCTATAA,0.0317
7,CCAAATGC,0.0481
8,AGTACTAT,0.0786
9,ACTATGCC,0.0439
10,ATTACTCA,0.237
11,CCCTGCGG,-0.205
12,AACACTCT,0.0668
13,ACAATGTC,0.102
14,AAAAGTGG,0.147
15,AGAAGCCC,-0.208
16,GGGCCCCA,-0.285
17,CATAGGTC,-0.0601
18,CAAGTACG,-0.0468
19,ATCCTGCA,0.147
20,AGTCCTCA,-0.0783
21,CGCAGACG,-0.00926
22,GACCGATC,-0.213
23,ATTGAATG,0.233

row,Sequence,PBM E-score
1,GTGTTGAA,0.0739
2,AAGGTCCA,-0.0721
3,CCGTATCG,-0.152
4,CCGCGCAG,-0.0676
5,GGGCCACA,-0.18
6,CCGTCGTC,-0.097
7,ATTCGCGC,0.184
8,CAGACGAG,-0.146
9,CGCTTAAC,0.0286
10,AATCTACA,0.172
11,AGTGACAC,0.00454
12,CCCTACTC,0.0255
13,AGCTTGAC,-0.0987
14,CCCCCTTA,-0.342
15,GAATCACA,0.0575
16,AAAGCTCT,-0.224
17,AACCTATC,0.0619
18,CTTGGCTC,-0.238
19,AGCGGAGG,-0.216
20,GGCGTTAC,-0.265
21,ACCTTAGG,-0.104
22,ACGTAGGC,-0.0352
23,AGATACCG,-0.0524

# Quoted at random: 5 entries already listed, in no set order.
row,Sequence,PBM E-score
13,AGCTTGAC,-0.0987
11,AGTGACAC,0.00454
3,CCGTATCG,-0.152
15,GAATCACA,0.0575
7,ATTCGCGC,0.184

# A few values from the entries so far.
# PBM E-score with CCGTATCG reads -0.152
# PBM E-score with AAAGCTCT reads -0.224

# The list continues:

row,Sequence,PBM E-score
1,CTTACATA,0.358
2,CAATCGTC,0.124
3,CCGTCACA,-0.236
4,TACTTTCA,0.119
5,ACGAAGGG,-0.237
6,ATACACAC,0.00594
7,GAACAAAC,0.226
8,AGTCGTGG,-0.00757
9,GGAATCGA,-0.0531
10,AACATCAC,0.011
11,GTATCACA,0.154
12,TTACAGAA,-0.0682
13,CACGGTTA,0.0993
14,CCATAGAA,-0.023
15,CAAATTCC,0.132
16,TGCGTTAA,0.053
17,CAAAGGGA,-0.18
18,ACGGCGGA,-0.0989
19,AGCACGTC,-0.00862
20,CCGGGCCC,-0.0989
21,AGTACCAA,0.167
22,CTTGACTC,-0.162
23,ACAGACGG,-0.123

row,Sequence,PBM E-score
1,AAATGGCC,-0.16
2,GCTGTGGA,-0.0281
3,ATGAGGCC,-0.156
4,ACTTACGG,0.104
5,AGCCGATA,-0.0478
6,GGTCTGAA,-0.0516
7,GTAGAAAA,-0.0209
8,TGATCTAA,0.0735
9,AGGCTTCC,-0.0374
10,CCCGTGAA,-0.0336
11,GAATCGCC,-0.111
12,TTGGTAAA,-0.168
13,AGGAGGCA,-0.119
14,CGGATGTA,-0.0153
15,TGCTGACA,0.245
16,CGCAAAAA,0.0785
17,CAAGAATC,0.133
18,CAGGACAC,-0.137
19,TATAATCA,0.342
20,ATCAACGA,0.0637
21,AACAACCG,0.0754
22,AAATATAT,0.295
23,AACACCCA,-0.0466

row,Sequence,PBM E-score
1,ACATTGCG,0.00233
2,ATTCGTGA,0.13
3,GCGCTGTA,0.0273
4,GCACGAAA,0.11
5,GCAGCCGA,-0.00044
6,GAGTGCCA,-0.235
7,ATAGAGAT,0.133
8,ATCATATC,0.209
9,GACAATGA,-0.0974
10,GCCAAGTA,-0.169
11,CGCTACTA,0.225
12,AACAGTCG,-0.0526
13,AAAGCAAC,-0.0159
14,GGGGATAA,0.089
15,ACTCCGGG,-0.0634
16,CCCTTCGC,-0.201
17,TCTAGCCA,0.0369
18,CAAGCCGA,0.0303
19,GGTCTTCA,-0.306
20,AAATGTAT,0.276
21,CAGATGTA,-0.00052
22,AACATTAT,0.261
23,AAGCACAG,0.0539

# A second format for some results above:
row | Sequence | PBM E-score
16 | CGCATAGA | 0.177
17 | TCTTAACA | 0.0509

# More entries follow.

row,Sequence,PBM E-score
1,CGGGTTCA,-0.123
2,CATATAAC,0.221
3,ACCCCACT,0.205
4,ACAGTATG,0.125
5,CACTTCCA,0.00352
6,AGCGCCTC,-0.188
7,AGTCCACA,-0.16
8,GCGCACTA,0.015
9,GCGCGCCC,-0.0675
10,AAGTGAAA,0.171
11,ACTATTGC,0.144
12,CTACAACA,-0.0362
13,ATAGACGA,0.066
14,CCATGAAG,-0.1
15,CTAGCCCA,-0.117
16,AGTTCAGA,-0.082
17,CGCTCACA,0.00496
18,AGGACCTG,-0.296
19,ATCAGCTA,-0.0705
20,AGGATGTC,-0.0361

# Source: the supplement of paper PMC3334620
